Measured values published in patent US20260001914A1 (Merck Sharp & Dohme LLC, priority 2022, published 2026).
Some peptides are written in HELM: one residue between dots, names in brackets for other building blocks, links after the first $.

Experiment: general procedure: Fmoc solid-phase peptide synthesis; 2-Chlorotrityl resin preloaded with Fmoc-NMeF-OH; HATU/NMM; DIC/Oxyma Pure
Details: whole synthesis, scale 0.2 mmol

PEPTIDE1{[CH2CO].F.R.[4Pal].L.[TyrOMe].[Nva].[NMeF].[dC].[am]}$PEPTIDE1,PEPTIDE1,1:R3-9:R3$$$V2.0
crude mass: 260 mg
